Results are given in words; binding and its absence hold for the method and conditions named. In cells and extracts the contact can be indirect.
Biological target: Flag-CHIPΔTPR (TPR-deleted mutant) (not stated (plasmid from Korea Human Gene Bank)) (UniProt Q9UNE7)
Assay: co-IP; HEK 293 cells, transfected tagged and/or endogenous proteins; high-salt lysis buffer (50 mM Tris/HCl pH 7.5, 1% Nonidet P-40, 300 mM NaCl, 150 mM KCl, 5 mM EDTA) diluted with lysis buffer without NaCl and KCl; antibodies and protein A-Sepharose overnight at 4 °C; in some panels cells treated with MG132 (5 uM, 10 h), siHSP70, siPARP1 or doxorubicin (2 ug/ml)

Sequences of proteins named here, by UniProt entry; tags and fusion partners are left off. A change or cut given only in a name is not applied to a line headed by its entry.
UniProt Q9UNE7: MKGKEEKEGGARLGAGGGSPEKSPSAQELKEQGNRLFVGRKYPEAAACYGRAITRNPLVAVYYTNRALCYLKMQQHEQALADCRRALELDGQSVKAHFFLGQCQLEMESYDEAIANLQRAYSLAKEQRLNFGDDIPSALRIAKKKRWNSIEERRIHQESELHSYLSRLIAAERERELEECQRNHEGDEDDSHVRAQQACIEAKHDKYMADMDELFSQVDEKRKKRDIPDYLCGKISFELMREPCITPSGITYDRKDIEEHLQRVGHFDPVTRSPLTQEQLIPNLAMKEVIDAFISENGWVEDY
UniProt P09874: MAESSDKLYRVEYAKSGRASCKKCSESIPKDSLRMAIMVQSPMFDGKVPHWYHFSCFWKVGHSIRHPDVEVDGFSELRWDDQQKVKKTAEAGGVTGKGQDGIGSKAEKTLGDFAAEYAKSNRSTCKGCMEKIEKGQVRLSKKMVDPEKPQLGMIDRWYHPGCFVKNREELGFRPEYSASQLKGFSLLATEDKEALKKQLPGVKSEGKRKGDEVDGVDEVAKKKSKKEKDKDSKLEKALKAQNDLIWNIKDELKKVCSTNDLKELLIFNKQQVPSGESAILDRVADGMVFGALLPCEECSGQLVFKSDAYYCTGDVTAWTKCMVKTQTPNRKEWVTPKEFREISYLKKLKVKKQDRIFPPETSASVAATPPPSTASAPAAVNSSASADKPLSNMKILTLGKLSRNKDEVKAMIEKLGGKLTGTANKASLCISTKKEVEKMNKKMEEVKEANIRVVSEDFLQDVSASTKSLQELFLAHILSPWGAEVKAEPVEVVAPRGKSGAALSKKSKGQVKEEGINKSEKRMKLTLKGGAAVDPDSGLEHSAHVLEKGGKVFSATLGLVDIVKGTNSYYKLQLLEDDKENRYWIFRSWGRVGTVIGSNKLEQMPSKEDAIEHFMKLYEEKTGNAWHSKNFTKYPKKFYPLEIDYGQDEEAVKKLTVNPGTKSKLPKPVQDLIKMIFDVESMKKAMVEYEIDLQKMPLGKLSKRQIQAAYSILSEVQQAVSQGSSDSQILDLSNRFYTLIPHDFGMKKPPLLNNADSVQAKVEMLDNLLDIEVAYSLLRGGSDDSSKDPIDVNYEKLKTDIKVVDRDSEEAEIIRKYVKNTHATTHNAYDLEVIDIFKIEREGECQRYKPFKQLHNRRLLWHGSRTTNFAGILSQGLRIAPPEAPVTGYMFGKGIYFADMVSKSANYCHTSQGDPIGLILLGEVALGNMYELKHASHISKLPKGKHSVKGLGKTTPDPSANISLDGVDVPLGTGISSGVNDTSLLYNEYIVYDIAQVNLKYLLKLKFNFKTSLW

- binding: no binding
Substance: endogenous PARP1 (poly(ADP-ribose) polymerase 1) (from UniProt P09874 1-1014) (enzyme)
